Measurements reported in PubChem BioAssay AID1259308 (NCATS, 2017)

Assay: 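Knock-downs that increase output of a recombinant reporter protein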 (primary screen)
Cell system: human HEK293 embryonic kidney cells stably expressing firefly luciferase (HEK-CMV-Luc2-Hygro)
Reagent: single siRNA against human genes, 0.8 pmol siRNA per well
Time to read-out: 72 h
Measurement: 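Reporter luminescence and viable-cell signal on separate replicate plates, given as percent of non-targeting control and median/MAD z-scores, plus per-cell luciferase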
Scale: total luciferase, z-score and total luciferase, % of control: higher = more reporter protein produced; luciferase per cell, z-score: higher = more reporter output per viable cell; viable cells, % of control: higher = more viable cells
Active means: 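Active when the median/MAD z-score for overall luciferase is greater than 3; a gene was taken forward for validation with new siRNAs if at least two of its three siRNAs passed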
Calls: active = raised luciferase; inactive = no rise
The deposit covers about 59,000 reagents; this is an unselected part. About 1,510 of them (2.6%) were called active. 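Calls use total luciferase alone and ignore viability, so some active siRNAs may act by altering cell number.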 A number with no mark means an inactive call.

Gene	PubChem SID	total luciferase, z-score	total luciferase, % of control	luciferase per cell, z-score	viable cells, % of control
KIAA2012	SID160760146	-0.814	65.7	-1.09	97.9
KIAA2012	SID160760147	-0.101	79.9	-0.321	97.1
KIAA2012	SID160760148	0.32	88.2	0.555	85.2
KIAA2012	SID160764307	-1.32	55.7	-1.24	86.3
KIAA2012	SID160764308	-0.408	73.8	-0.266	88.4
KIAA2012	SID160764309	-1.99	42.3	-1.67	73.4
CCNB3 (cyclin B3)	SID160753267	-0.305	75.8	-0.551	98
CCNB3 (cyclin B3)	SID160753268	-1.19	58.2	-0.711	78.4
CCNB3 (cyclin B3)	SID160753269	0.592	93.7	1.14	77.4
TNFRSF19 (TNF receptor superfamily member 19)	SID160743719	-0.784	66.3	-0.608	87
TNFRSF19 (TNF receptor superfamily member 19)	SID160743720	-0.456	72.8	-0.744	99
TNFRSF19 (TNF receptor superfamily member 19)	SID160743721	1.67	115	2.07	74.6
TMEM52B (transmembrane protein 52B)	SID160755852	-1.19	58.2	1.27	46.6
TMEM52B (transmembrane protein 52B)	SID160755854	-0.422	73.5	-0.486	93.3
TMEM52B (transmembrane protein 52B)	SID160755855	0.548	92.8	0.843	83
ID4 (inhibitor of DNA binding 4)	SID160775526	0.87	99.2	0.895	87.6
ID4 (inhibitor of DNA binding 4)	SID160775527	0.791	97.6	0.199	104
ID4 (inhibitor of DNA binding 4)	SID160775528	1.26	107	0.682	99.9
HTR2A (5-hydroxytryptamine receptor 2A)	SID160775452	0.701	95.8	0.514	93.5
HTR2A (5-hydroxytryptamine receptor 2A)	SID160775453	0.698	95.8	0.263	99.9
HTR2A (5-hydroxytryptamine receptor 2A)	SID160775454	-1.51	51.8	-2.33	107
SIRPD (signal regulatory protein delta)	SID160756788	-0.036	81.2	0.0421	89.7
SIRPD (signal regulatory protein delta)	SID160756789	-0.307	75.8	-1.09	113
SIRPD (signal regulatory protein delta)	SID160756790	0.0436	82.8	-0.0928	94.8
POF1B (POF1B actin binding protein)	SID160749905	0.472	91.3	0.498	89.5
POF1B (POF1B actin binding protein)	SID160749907	0.298	87.8	-0.0998	101
POF1B (POF1B actin binding protein)	SID160749908	-2.01	41.8	-1.94	77.9
ZCCHC12 (zinc finger CCHC-type containing 12)	SID160760391	0.313	88.1	0.846	78.8
ZCCHC12 (zinc finger CCHC-type containing 12)	SID160760392	1.09	103	2.28	63.5
ZCCHC12 (zinc finger CCHC-type containing 12)	SID160760393	-0.45	72.9	-0.292	88
SPAG8 (sperm associated antigen 8)	SID160737763	1.65	115	0.991	98.7
SPAG8 (sperm associated antigen 8)	SID160737765	-0.239	77.1	-0.185	90.5
SPAG8 (sperm associated antigen 8)	SID160737766	1.08	103	0.605	98.6
DCUN1D5 (defective in cullin neddylation 1 domain containing 5)	SID160751980	-0.462	72.7	-0.689	97.4
DCUN1D5 (defective in cullin neddylation 1 domain containing 5)	SID160751981	-0.142	79.1	0.286	82
DCUN1D5 (defective in cullin neddylation 1 domain containing 5)	SID160751982	-1.28	56.5	2.48	32.8

Not a retest: an excerpt of the list.
Gene	PubChem SID	total luciferase, z-score	total luciferase, % of control	luciferase per cell, z-score	viable cells, % of control
ID4 (inhibitor of DNA binding 4)	SID160775526	0.87	99.2	0.895	87.6
ID4 (inhibitor of DNA binding 4)	SID160775527	0.791	97.6	0.199	104
ID4 (inhibitor of DNA binding 4)	SID160775528	1.26	107	0.682	99.9
HTR2A (5-hydroxytryptamine receptor 2A)	SID160775452	0.701	95.8	0.514	93.5
HTR2A (5-hydroxytryptamine receptor 2A)	SID160775453	0.698	95.8	0.263	99.9
HTR2A (5-hydroxytryptamine receptor 2A)	SID160775454	-1.51	51.8	-2.33	107
SIRPD (signal regulatory protein delta)	SID160756788	-0.036	81.2	0.0421	89.7
SIRPD (signal regulatory protein delta)	SID160756789	-0.307	75.8	-1.09	113
SIRPD (signal regulatory protein delta)	SID160756790	0.0436	82.8	-0.0928	94.8

Next results follow.
Gene	PubChem SID	total luciferase, z-score	total luciferase, % of control	luciferase per cell, z-score	viable cells, % of control
GOLGA6L10 (golgin A6 family like 10)	SID160726007	2.53	132	2.44	77.8
GOLGA6L10 (golgin A6 family like 10)	SID160726008	-0.742	67.1	-0.323	81.7
GOLGA6L10 (golgin A6 family like 10)	SID160726009	1.53	112	2.27	69.1
SLC6A7	SID160716868	0.738	96.6	0.0295	107
SLC6A7	SID160716869	0.578	93.4	-0.794	129
SLC6A7	SID160716870	-0.126	79.4	0.366	80.6
PCDHGC3 (protocadherin gamma subfamily C, 3)	SID160727844	-1.12	59.6	-1.26	92.7
PCDHGC3 (protocadherin gamma subfamily C, 3)	SID160727845	-1.02	61.6	-0.559	79.8
PCDHGC3 (protocadherin gamma subfamily C, 3)	SID160727846	-0.0468	81	1.57	59.8
CCDC106 (coiled-coil domain containing 106)	SID160724385	0.347	88.8	-0.146	103
CCDC106 (coiled-coil domain containing 106)	SID160733039	-0.116	79.6	0.0795	87.1
CCDC106 (coiled-coil domain containing 106)	SID160739264	-0.357	74.8	-0.052	84.7
SMG9 (SMG9 nonsense mediated mRNA decay factor)	SID160744727	0.982	101	1.51	76.1
SMG9 (SMG9 nonsense mediated mRNA decay factor)	SID160744728	-0.237	77.2	-0.399	95.8
SMG9 (SMG9 nonsense mediated mRNA decay factor)	SID160744729	-0.61	69.7	-0.402	86.6
C1orf105 (chromosome 1 open reading frame 105)	SID160754271	0.617	94.2	0.361	95.7
C1orf105 (chromosome 1 open reading frame 105)	SID160754272	-1.43	53.4	0.337	54.7
C1orf105 (chromosome 1 open reading frame 105)	SID160754273	-0.996	62.1	0.947	54.1
XRCC6 (X-ray repair cross complementing 6)	SID160768192	1.71	116	1.83	79.9
XRCC6 (X-ray repair cross complementing 6)	SID160768202	0.057	83	-0.0624	94.3
XRCC6 (X-ray repair cross complementing 6)	SID160768205	-0.479	72.4	0.236	76
